{
  "source": "the supplement of paper PMC8728848",
  "binders": {"B1": {"name": "HA-61200 (Pseudomonas aeruginosa), Q02SP8_PSEAB (protein)", "chain": "MNKCYALVWNVSQGCWNVVSEGSRRRGKPAGAKAAIASVLALLGATALAPAYALPSGGTVVGGSANGEIHLSGGNSLSVNQKVDKLIANWDSFSVAAGERVIFNQPSSSSIALNRVIGTKASDIQGRIDANGQVFLVNPNGVLFGRGAQVNVGGLVASTLDITDAEFNGNSSRYRFTGPSTNGVLNHGGAITAAEGGSIALLGAQVDNRGTVLAQMGGVGLGAGSDLTLNFDGNKLLDIRVDAGVANALASNGGLLKADGGRVLMAARTANALLNTVVNSQGAIEARSLRGKNGRIVLDG"}},
  "assay_in_all_cases": "glycan array binding signal (z-score within array); higher = stronger binding",
  "details_in_all_cases": "glycan notation: IUPAC condensed, linker removed",
  "key": {"[1]": {"target": "GlcNAc(b1-3)Gal(b1-4)GlcNAc(b1-3)Gal(b1-4)GlcNAc(b1-3)Gal(b1-4)GlcNAc(b1-2)Man(a1-3)[GlcNAc(b1-3)Gal(b1-4)GlcNAc(b1-3)Gal(b1-4)GlcNAc(b1-3)Gal(b1-4)GlcNAc(b1-2)Man(a1-6)]Man(b1-4)GlcNAc(b1-4)[Fuc(a1-6)]GlcNAc", "procedure,_shortened": "(§1)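 Negative Z-scores can be read as non-binding. The Z-score is calculated within each array and then averaged across arrays of one protein sequence at different concentrations or buffers and across linkers. Arrays, 3228 in all, were curated from the Consortium for Functional Glycomics database and kept only where the protein sequence was available.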"}, "[2]": {"target": "GlcNAc(b1-3)Gal(b1-4)GlcNAc(b1-3)Gal(b1-4)GlcNAc(b1-3)Gal(b1-4)GlcNAc(b1-2)[GlcNAc(b1-3)Gal(b1-4)GlcNAc(b1-3)Gal(b1-4)GlcNAc(b1-3)Gal(b1-4)GlcNAc(b1-6)]Man(a1-6)[GlcNAc(b1-3)Gal(b1-4)GlcNAc(b1-3)Gal(b1-4)GlcNAc(b1-3)Gal(b1-4)GlcNAc(b1-2)Man(a1-3)]Man(b1-4)GlcNAc(b1-4)[Fuc(a1-6)]GlcNAc", "procedure,_shortened": "as §1"}, "[3]": {"target": "GlcNAc(b1-3)Gal(b1-4)GlcNAc(b1-3)Gal(b1-4)GlcNAc(b1-3)Gal(b1-4)GlcNAc(b1-3)Gal(b1-4)GlcNAc(b1-2)Man(a1-3)[GlcNAc(b1-3)Gal(b1-4)GlcNAc(b1-3)Gal(b1-4)GlcNAc(b1-3)Gal(b1-4)GlcNAc(b1-3)Gal(b1-4)GlcNAc(b1-2)Man(a1-6)]Man(b1-4)GlcNAc(b1-4)GlcNAc", "procedure,_shortened": "as §1"}, "[4]": {"target": "GlcNAc(b1-3)Gal(b1-4)GlcNAc(b1-3)Gal(b1-4)GlcNAc(b1-3)Gal(b1-4)GlcNAc(b1-3)Gal(b1-4)GlcNAc(b1-2)Man(a1-3)[GlcNAc(b1-3)Gal(b1-4)GlcNAc(b1-3)Gal(b1-4)GlcNAc(b1-3)Gal(b1-4)GlcNAc(b1-3)Gal(b1-4)GlcNAc(b1-2)Man(a1-6)]Man(b1-4)GlcNAc(b1-4)[Fuc(a1-6)]GlcNAc", "procedure,_shortened": "as §1"}, "[5]": {"target": "GlcNAc(b1-3)Gal(b1-4)GlcNAc(b1-3)Gal(b1-4)GlcNAc(b1-3)Gal(b1-4)GlcNAc(b1-3)Gal(b1-4)GlcNAc(b1-2)[GlcNAc(b1-3)Gal(b1-4)GlcNAc(b1-3)Gal(b1-4)GlcNAc(b1-3)Gal(b1-4)GlcNAc(b1-3)Gal(b1-4)GlcNAc(b1-6)]Man(a1-6)[GlcNAc(b1-3)Gal(b1-4)GlcNAc(b1-3)Gal(b1-4)GlcNAc(b1-3)Gal(b1-4)GlcNAc(b1-3)Gal(b1-4)GlcNAc(b1-2)Man(a1-3)]Man(b1-4)GlcNAc(b1-4)[Fuc(a1-6)]GlcNAc", "procedure,_shortened": "as §1"}, "[6]": {"target": "GlcNAc(b1-3)Gal(b1-4)GlcNAc(b1-3)Gal(b1-4)GlcNAc(b1-3)GalNAc", "procedure,_shortened": "as §1"}, "[7]": {"target": "GlcNAc(b1-3)Gal(b1-4)GlcNAc(b1-3)GalNAc", "procedure,_shortened": "as §1"}, "[8]": {"target": "GlcNAc(b1-3)Gal(b1-4)GlcNAc(b1-3)[GlcNAc(b1-3)Gal(b1-4)GlcNAc(b1-3)]GalNAc", "procedure,_shortened": "as §1"}, "[9]": {"target": "GlcNAc(b1-3)Gal(b1-4)GlcNAc(b1-6)[Gal(b1-3)]GalNAc", "procedure,_shortened": "as §1"}, "[10]": {"target": "GlcNAc(b1-3)Gal(b1-4)GlcNAc(b1-6)[GlcNAc(b1-3)Gal(b1-3)]GalNAc", "procedure,_shortened": "as §1"}, "[11]": {"target": "GlcNAc(b1-3)Gal(b1-4)GlcNAc(b1-6)[GlcNAc(b1-3)]Gal(b1-4)GlcNAc", "procedure,_shortened": "as §1"}, "[12]": {"target": "GlcNAc(b1-3)GalNAc", "procedure,_shortened": "as §1"}, "[13]": {"target": "GlcNAc(b1-3)Man", "procedure,_shortened": "as §1"}, "[14]": {"target": "GlcNAc(b1-3)[GlcNAc(b1-4)][GlcNAc(b1-6)]GlcNAc", "procedure,_shortened": "as §1"}, "[15]": {"target": "GlcNAc(b1-3)[GlcNAc(b1-6)]Gal(b1-4)GlcNAc", "procedure,_shortened": "as §1"}, "[16]": {"target": "GlcNAc(b1-3)[GlcNAc(b1-6)]GalNAc", "procedure,_shortened": "as §1"}, "[17]": {"target": "GlcNAc(b1-4)Gal(b1-4)GlcNAc", "procedure,_shortened": "as §1"}, "[18]": {"target": "GlcNAc(b1-4)GlcNAc", "procedure,_shortened": "as §1"}, "[19]": {"target": "GlcNAc(b1-4)GlcNAc(b1-4)GlcNAc", "procedure,_shortened": "as §1"}},
  "note": "The list shows a part of the results.",
  "data": [
    {"binder": "B1", "values": [
      {"measurement": "glycan array binding signal (z-score)", "setting": "[1]", "value": 1.42},
      {"measurement": "glycan array binding signal (z-score)", "setting": "[2]", "value": 0.05},
      {"measurement": "glycan array binding signal (z-score)", "setting": "[3]", "value": 0.298},
      {"measurement": "glycan array binding signal (z-score)", "setting": "[4]", "value": 0.525},
      {"measurement": "glycan array binding signal (z-score)", "setting": "[5]", "value": -0.457},
      {"measurement": "glycan array binding signal (z-score)", "setting": "[6]", "value": -0.14},
      {"measurement": "glycan array binding signal (z-score)", "setting": "[7]", "value": 0.291},
      {"measurement": "glycan array binding signal (z-score)", "setting": "[8]", "value": 0.412},
      {"measurement": "glycan array binding signal (z-score)", "setting": "[9]", "value": 0.163},
      {"measurement": "glycan array binding signal (z-score)", "setting": "[10]", "value": -0.009},
      {"measurement": "glycan array binding signal (z-score)", "setting": "[11]", "value": -0.8},
      {"measurement": "glycan array binding signal (z-score)", "setting": "[12]", "value": -0.301},
      {"measurement": "glycan array binding signal (z-score)", "setting": "[13]", "value": -0.483},
      {"measurement": "glycan array binding signal (z-score)", "setting": "[14]", "value": -0.922},
      {"measurement": "glycan array binding signal (z-score)", "setting": "[15]", "value": -1.07},
      {"measurement": "glycan array binding signal (z-score)", "setting": "[16]", "value": -0.141},
      {"measurement": "glycan array binding signal (z-score)", "setting": "[17]", "value": 0.684},
      {"measurement": "glycan array binding signal (z-score)", "setting": "[18]", "value": 0.176},
      {"measurement": "glycan array binding signal (z-score)", "setting": "[19]", "value": -1.15}
    ]}
  ]
}
